In the supplement of paper PMC12067093, “Discovery and optimisation of a covalent ligand for TRIM25 and its application to targeted protein ubiquitination” (Chemical Science, 2025):
The list shows a part of the results.

Protein sequences, listed by entry. Tags and fused reporters are not part of them. Lines headed by an entry give the natural chain unless they say otherwise; changes in a name come on top.
UniProt Q15042: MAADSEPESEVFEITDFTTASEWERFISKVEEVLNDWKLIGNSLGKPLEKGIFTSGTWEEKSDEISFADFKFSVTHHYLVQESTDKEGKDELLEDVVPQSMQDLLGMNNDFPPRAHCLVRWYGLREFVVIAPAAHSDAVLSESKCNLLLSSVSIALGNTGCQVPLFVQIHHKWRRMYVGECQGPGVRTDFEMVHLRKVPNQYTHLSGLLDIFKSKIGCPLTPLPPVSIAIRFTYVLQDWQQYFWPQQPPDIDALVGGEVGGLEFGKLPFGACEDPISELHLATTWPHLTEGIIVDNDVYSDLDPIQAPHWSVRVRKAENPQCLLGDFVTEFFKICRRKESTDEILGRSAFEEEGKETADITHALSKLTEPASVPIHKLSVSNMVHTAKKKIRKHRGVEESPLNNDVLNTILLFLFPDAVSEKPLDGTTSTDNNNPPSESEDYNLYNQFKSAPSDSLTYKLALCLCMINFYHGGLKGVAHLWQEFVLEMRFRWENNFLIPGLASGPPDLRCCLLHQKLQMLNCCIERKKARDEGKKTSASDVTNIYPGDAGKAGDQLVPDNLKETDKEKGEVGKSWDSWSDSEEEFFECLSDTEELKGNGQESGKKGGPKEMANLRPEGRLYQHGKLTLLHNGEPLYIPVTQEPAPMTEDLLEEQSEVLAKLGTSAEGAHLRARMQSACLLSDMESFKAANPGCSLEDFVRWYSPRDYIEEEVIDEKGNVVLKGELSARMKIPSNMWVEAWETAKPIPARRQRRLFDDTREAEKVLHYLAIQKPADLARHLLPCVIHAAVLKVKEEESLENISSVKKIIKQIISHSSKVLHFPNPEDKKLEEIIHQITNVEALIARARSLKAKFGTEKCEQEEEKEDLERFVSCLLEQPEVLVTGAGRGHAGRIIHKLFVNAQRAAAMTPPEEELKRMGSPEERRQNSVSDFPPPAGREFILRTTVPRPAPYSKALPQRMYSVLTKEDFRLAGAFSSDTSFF
UniProt Q15269: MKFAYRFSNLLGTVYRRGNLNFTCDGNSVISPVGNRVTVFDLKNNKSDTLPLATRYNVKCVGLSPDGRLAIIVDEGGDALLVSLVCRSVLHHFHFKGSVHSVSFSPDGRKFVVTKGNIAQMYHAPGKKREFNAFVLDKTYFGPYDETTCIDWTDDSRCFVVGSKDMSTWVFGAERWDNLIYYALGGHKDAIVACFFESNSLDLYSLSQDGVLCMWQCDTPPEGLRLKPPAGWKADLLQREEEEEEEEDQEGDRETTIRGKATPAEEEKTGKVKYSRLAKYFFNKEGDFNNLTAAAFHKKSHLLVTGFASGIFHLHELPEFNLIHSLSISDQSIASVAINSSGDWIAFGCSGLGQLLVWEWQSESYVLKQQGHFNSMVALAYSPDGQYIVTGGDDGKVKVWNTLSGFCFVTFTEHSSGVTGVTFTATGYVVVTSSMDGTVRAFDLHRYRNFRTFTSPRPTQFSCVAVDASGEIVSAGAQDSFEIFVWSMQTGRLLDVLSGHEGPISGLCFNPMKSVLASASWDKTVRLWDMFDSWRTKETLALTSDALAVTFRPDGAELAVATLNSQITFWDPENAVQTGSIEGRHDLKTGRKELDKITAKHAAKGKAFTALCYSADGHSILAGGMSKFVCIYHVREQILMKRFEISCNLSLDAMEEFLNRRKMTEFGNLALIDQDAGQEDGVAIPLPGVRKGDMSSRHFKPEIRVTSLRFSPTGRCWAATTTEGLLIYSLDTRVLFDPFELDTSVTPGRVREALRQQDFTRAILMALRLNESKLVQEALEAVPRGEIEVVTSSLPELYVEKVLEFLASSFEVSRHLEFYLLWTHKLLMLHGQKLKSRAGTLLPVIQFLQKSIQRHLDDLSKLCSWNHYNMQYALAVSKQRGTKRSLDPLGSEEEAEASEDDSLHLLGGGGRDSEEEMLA
UniProt P11216: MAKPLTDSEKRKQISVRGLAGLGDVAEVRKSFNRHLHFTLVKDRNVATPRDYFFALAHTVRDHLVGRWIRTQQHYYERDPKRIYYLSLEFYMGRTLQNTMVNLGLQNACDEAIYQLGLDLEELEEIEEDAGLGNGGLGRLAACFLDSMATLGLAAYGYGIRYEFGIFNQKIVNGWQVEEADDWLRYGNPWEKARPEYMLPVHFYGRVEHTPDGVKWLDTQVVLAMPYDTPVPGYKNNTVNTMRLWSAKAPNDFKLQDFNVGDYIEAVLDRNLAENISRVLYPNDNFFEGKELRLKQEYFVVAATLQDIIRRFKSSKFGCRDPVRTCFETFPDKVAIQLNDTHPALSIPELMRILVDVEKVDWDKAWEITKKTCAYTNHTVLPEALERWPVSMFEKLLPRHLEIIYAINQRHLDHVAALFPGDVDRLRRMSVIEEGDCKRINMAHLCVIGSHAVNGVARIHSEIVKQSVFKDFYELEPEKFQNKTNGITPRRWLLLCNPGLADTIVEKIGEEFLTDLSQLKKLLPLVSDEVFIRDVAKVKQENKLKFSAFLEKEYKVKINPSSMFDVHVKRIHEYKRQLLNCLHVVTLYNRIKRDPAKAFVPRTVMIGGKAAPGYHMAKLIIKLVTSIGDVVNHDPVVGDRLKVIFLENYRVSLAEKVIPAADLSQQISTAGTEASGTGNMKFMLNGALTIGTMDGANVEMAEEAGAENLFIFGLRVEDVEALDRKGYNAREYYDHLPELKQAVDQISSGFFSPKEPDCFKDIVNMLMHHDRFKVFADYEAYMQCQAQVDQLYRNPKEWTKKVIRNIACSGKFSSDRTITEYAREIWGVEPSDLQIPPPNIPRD
UniProt Q92878: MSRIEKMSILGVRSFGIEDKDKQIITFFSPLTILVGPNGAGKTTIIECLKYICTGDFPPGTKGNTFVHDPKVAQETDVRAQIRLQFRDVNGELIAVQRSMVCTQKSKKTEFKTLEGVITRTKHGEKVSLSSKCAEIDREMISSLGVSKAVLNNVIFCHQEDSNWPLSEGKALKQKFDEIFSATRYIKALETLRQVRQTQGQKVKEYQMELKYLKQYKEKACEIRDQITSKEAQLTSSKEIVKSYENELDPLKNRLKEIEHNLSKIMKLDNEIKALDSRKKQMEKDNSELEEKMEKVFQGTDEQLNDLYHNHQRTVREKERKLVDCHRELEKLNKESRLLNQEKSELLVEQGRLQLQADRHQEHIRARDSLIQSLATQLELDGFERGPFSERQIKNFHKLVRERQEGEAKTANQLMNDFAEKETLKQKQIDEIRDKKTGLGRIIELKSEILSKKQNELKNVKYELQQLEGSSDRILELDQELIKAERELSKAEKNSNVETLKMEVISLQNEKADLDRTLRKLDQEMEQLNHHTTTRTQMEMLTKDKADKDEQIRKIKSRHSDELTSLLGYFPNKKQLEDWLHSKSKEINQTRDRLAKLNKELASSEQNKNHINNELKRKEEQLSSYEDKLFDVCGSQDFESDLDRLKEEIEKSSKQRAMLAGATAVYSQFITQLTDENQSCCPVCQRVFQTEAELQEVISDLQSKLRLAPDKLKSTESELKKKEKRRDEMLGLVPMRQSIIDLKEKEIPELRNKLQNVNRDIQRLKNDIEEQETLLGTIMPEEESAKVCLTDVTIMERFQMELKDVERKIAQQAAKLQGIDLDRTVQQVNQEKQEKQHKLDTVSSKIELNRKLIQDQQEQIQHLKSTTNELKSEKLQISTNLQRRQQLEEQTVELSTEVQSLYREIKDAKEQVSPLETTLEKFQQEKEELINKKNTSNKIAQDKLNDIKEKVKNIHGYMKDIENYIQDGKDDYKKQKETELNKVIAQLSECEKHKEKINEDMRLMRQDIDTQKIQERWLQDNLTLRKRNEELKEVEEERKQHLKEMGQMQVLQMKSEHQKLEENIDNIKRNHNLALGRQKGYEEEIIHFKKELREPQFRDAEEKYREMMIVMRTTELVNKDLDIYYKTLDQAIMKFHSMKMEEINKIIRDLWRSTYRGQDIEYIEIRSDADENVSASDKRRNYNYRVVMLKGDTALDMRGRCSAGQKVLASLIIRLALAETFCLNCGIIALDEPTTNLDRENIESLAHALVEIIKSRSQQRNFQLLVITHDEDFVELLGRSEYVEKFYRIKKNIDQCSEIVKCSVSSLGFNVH
UniProt P61006: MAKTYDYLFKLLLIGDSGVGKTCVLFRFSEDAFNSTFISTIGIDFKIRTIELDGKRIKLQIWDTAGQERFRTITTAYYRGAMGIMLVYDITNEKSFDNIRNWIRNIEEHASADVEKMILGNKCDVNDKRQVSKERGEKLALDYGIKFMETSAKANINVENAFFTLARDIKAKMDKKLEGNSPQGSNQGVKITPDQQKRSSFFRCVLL
UniProt P49023, whole entry, looked up: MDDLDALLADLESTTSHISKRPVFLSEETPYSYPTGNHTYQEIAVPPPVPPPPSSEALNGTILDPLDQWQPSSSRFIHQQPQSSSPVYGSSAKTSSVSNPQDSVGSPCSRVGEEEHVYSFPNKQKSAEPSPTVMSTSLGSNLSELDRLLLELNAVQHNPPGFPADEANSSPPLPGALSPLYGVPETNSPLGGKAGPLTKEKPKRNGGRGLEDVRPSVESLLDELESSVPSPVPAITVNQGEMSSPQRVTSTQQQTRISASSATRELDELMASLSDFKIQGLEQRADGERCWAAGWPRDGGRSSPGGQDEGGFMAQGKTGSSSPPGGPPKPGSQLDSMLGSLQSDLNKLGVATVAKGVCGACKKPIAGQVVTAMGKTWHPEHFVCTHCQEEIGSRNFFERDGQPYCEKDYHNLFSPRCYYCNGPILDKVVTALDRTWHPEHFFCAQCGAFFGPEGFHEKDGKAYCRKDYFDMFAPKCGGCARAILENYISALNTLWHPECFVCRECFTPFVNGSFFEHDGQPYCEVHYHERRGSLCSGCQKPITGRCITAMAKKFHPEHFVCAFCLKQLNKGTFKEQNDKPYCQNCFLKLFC
UniProt Q9H2M9: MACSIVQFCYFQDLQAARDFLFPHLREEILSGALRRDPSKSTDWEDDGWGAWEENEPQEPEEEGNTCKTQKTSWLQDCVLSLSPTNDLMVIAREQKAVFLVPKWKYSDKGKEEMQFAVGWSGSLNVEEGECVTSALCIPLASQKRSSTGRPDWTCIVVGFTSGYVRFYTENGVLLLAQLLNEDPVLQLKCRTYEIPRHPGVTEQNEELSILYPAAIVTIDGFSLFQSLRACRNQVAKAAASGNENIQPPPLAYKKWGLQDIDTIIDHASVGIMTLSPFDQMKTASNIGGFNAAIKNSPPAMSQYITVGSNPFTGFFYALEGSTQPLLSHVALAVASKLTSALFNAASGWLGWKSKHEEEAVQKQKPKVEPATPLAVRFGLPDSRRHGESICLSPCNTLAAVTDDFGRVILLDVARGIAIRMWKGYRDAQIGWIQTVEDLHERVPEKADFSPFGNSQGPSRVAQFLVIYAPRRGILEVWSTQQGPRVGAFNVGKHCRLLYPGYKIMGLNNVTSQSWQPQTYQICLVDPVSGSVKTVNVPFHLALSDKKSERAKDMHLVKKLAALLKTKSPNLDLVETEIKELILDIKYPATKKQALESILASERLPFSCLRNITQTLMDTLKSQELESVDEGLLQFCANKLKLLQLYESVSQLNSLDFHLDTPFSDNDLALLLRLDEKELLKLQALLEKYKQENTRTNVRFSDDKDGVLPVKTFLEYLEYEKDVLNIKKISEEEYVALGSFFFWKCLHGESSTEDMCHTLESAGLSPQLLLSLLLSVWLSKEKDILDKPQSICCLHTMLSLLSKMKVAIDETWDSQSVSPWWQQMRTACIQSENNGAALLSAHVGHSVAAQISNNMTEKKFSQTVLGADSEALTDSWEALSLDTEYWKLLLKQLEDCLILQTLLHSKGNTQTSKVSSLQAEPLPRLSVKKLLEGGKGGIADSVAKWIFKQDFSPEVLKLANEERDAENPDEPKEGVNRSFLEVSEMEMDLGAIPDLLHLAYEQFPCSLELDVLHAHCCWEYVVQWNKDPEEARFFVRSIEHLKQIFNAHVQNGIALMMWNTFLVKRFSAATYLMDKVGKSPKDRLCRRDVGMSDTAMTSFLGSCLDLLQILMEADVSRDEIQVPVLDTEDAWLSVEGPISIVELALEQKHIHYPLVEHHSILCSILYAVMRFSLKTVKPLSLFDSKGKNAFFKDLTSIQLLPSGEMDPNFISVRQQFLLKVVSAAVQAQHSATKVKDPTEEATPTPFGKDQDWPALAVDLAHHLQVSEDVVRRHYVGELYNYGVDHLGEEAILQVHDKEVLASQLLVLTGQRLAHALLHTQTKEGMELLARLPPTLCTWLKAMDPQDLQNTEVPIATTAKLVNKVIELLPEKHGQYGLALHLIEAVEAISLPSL
UniProt Q9NP72: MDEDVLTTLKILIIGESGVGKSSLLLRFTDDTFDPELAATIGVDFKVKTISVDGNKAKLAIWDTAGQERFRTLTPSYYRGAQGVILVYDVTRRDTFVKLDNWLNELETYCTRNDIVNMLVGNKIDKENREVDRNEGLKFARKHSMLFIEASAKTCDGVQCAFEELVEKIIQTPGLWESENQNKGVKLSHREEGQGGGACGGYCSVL

Compound: CC1Cc2ccccc2N1C(=O)C1CCCN(C1)C(=O)CCl (mixture of isomers) [TRIM25 ligand 11 (diastereomer mixture)]
Experiment: probe-labelled cysteine peptide fold change vs DMSO (competition) (log2 fold change); higher = less target engagement (more negative = stronger competition)
Conditions: THP-1, incubation time: 4 h
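Further: competitive chemoproteomic profiling in live THP-1 cells with an iodoacetamide desthiobiotin (IA-DTB) probe, comparing probe-labelled peptide intensities in compound-treated cells against DMSO-treated controls.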

| Target | probe-labelled cysteine peptide fold change (10 µM) | probe-labelled cysteine peptide fold change (50 µM) |
| --- | --- | --- |
| RACK1_P63244_207_TNHIGHTGYLNTVTVSPDGSLCASGGKDGQAMLWDLNEGK (UniProt P63244) | -0.484 | -0.388 |
| RAB3GAP1_Q15042_693_AANPGCSLEDFVR (UniProt Q15042) | -0.105 | -0.108 |
| PWWP2A_Q96N64_233_CEANGAVPDDPSPVPHPELSLAESLWTSKPPPLFHEGAPYPPPLFIR (UniProt Q96N64) | -0.28 | -0.21 |
| PUM1_Q14671_980_CIECVQPQSLQFIIDAFK (UniProt Q14671) | 0.0374 | 0.226 |
| RABEP2_Q9H5N1_482_VQREETEVLEASLCSLR (UniProt Q9H5N1) | -0.0883 | -0.0452 |
| RABGAP1_Q9Y3P9_582_GEVWQLLAGCHNNDHLVEK (UniProt Q9Y3P9) | 0.0764 | 0.0142 |
| PURB_Q96QR8_238_FFFDVGCNK (UniProt Q96QR8) | -0.0401 | 0.111 |
| RACK1_P63244_168_FSPNSSNPIIVSCGWDK (UniProt P63244) | 0.0732 | -0.0677 |
| RAB14_P61106_40_FMADCPHTIGVEFGTR (UniProt P61106) | 0.129 | 0.0136 |
| PWP2_Q15269_863_LCSWNHYNMQYALAVSK (UniProt Q15269) | 0.0991 | 0.0966 |
| RAB3GAP1_Q15042_873_FVSCLLEQPEVLVTGAGR (UniProt Q15042) | 0.274 | 0.33 |
| RAB11FIP1_Q6WKZ4_1192_VANCSLGTATIISENLNNEVMMK (UniProt Q6WKZ4) | -0.215 | -0.12 |
| RAB4A_P20338_124_MLASQNIVIILCGNKK (UniProt P20338) | -0.176 | 0.00921 |
| RABGGTA_Q92696_302_NRPSHVWLCDLPAASLNDQLPQHTFR (UniProt Q92696) | 0.0743 | 0.0232 |
| QTRT1_Q9BXR0_317_DFGPIDPECTCPTCQK (UniProt Q9BXR0) | 0.212 | 0.108 |
| PUS10_Q3MIT2_223_SLFEVSVVFAHPETVEDCHFLAAICPDCFKPAK (UniProt Q3MIT2) | -0.0133 | -0.0105 |
| PYGB_P11216_437_MSVIEEGDCK (UniProt P11216) | 0.0306 | -0.0695 |
| RAD50_Q92878_133_CAEIDREMISSLGVSK (UniProt Q92878) | -0.141 | -0.398 |
| RAB3GAP1_Q15042_218_IGCPLTPLPPVSIAIR (UniProt Q15042) | 0.158 | -0.0394 |
| PWP2_Q15269_612_AFTALCYSADGHSILAGGMSK (UniProt Q15269) | 0.188 | 0.256 |
| RAD50_Q92878_48_TTIIECLK (UniProt Q92878) | 0.0604 | 0.0148 |

Fetched one by one from above, 3 records:

| Target | probe-labelled cysteine peptide fold change (10 µM) | probe-labelled cysteine peptide fold change (50 µM) |
| --- | --- | --- |
| RAB3GAP1_Q15042_873_FVSCLLEQPEVLVTGAGR (UniProt Q15042) | 0.274 | 0.33 |
| RAD50_Q92878_48_TTIIECLK (UniProt Q92878) | 0.0604 | 0.0148 |
| PWWP2A_Q96N64_233_CEANGAVPDDPSPVPHPELSLAESLWTSKPPPLFHEGAPYPPPLFIR (UniProt Q96N64) | -0.28 | -0.21 |

(next part)

| Target | probe-labelled cysteine peptide fold change (10 µM) | probe-labelled cysteine peptide fold change (50 µM) |
| --- | --- | --- |
| RAB8A_P61006_123_CDVNDK (UniProt P61006) | -0.0163 | 0.0238 |
| RAB21_Q9UL25_126+128_MLGNEICLCIVGNK (UniProt Q9UL25) | -0.135 | 0.151 |
| PYCR2_Q96C36_225_MLLDSEQHPCQLK (UniProt Q96C36) | 0.0577 | -0.0151 |
| QARS_P47897_657+665_GPSGCVESLEVTCR (UniProt P47897) | -0.0537 | -0.0855 |
| PWP1_Q13610_154_DTEQYEREDFLIKPSDNLIVCGR (UniProt Q13610) | -0.117 | -0.216 |
| PXN_P49023_505_ECFTPFVNGSFFEHDGQPYCEVHYHER (UniProt P49023) | 0.178 | 0.282 |
| RACGAP1_Q9H0H5_419_VDDIHAICSLLK (UniProt Q9H0H5) | -0.0954 | 0.00119 |
| RAB7B_Q96AH8_142_KVPQEVAQGWCR (UniProt Q96AH8) | -0.0176 | 0.142 |
| RAB3GAP2_Q9H2M9_793_DILDKPQSICCLHTMLSLLSK (UniProt Q9H2M9) | 0.202 | 0.0417 |
| RABGAP1_Q9Y3P9_941_QICSQLSER (UniProt Q9Y3P9) | 0.0108 | -0.0997 |
| RABEP1_Q15276_263_ELHEVCHLLEQER (UniProt Q15276) | -0.0262 | 0.00414 |
| RAD23B_P54727_390_ALGFPEGLVIQAYFACEK (UniProt P54727) | 0.0121 | 0.0586 |
| PYGB_P11216_326_TCFETFPDK (UniProt P11216) | -0.162 | -0.207 |
| PWP1_Q13610_9_QVTCVAWVR (UniProt Q13610) | -0.258 | -0.313 |
| PYGB_P11216_446_RINMAHLCVIGSHAVNGVAR (UniProt P11216) | 0.00122 | 0.274 |
| RACK1_P63244_138_LWNTLGVCK (UniProt P63244) | 0.00679 | 0.0323 |
| RAD18_Q9NS91_223_HLDSCLSR (UniProt Q9NS91) | -0.0164 | 0.125 |
| PUS7_Q96PZ0_258_GSYCHFVLYK (UniProt Q96PZ0) | -0.0631 | -0.0195 |
| PUM2_Q8TB72_983_ALLIDEVCCQNDGPHSALYTMMK (UniProt Q8TB72) | 0.168 | -0.126 |
| RAD54B_Q9Y620_320_CGAILADEMGLGK (UniProt Q9Y620) | 0.0288 | 0.149 |
| RAB18_Q9NP72_155+160_TCDGVQCAFEELVEK (UniProt Q9NP72) | 0.265 | -0.0579 |

| Target | probe-labelled cysteine peptide fold change (10 µM) | probe-labelled cysteine peptide fold change (50 µM) |
| --- | --- | --- |
| QSOX1_O00391_512_ELCSACHNER (UniProt O00391) | 0.121 | -0.0923 |
| RABEPK_Q7Z6M1_243_LNPTGAAPAGCAAHSAVAMGK (UniProt Q7Z6M1) | 0.107 | 0.0284 |
| QSOX1_O00391_393_VNWIGCQGSEPHFR (UniProt O00391) | 0.112 | 0.186 |
| PYCR3_Q53H96_129_VLPNLPCVVQEGAIVMAR (UniProt Q53H96) | 0.0485 | 0.0926 |
| PXK_Q7Z7A4_204_LLPSCLHPYIYR (UniProt Q7Z7A4) | 0.145 | 0.0873 |
| RABGAP1L_Q5R372_139_LTYLGCMK (UniProt Q5R372) | 0.1 | 0.0681 |
| RAB7A_P51149_84_GADCCVLVFDVTAPNTFK (UniProt P51149) | 0.113 | 0.283 |
| QARS_P47897_665_GPSGCVESLEVTCR (UniProt P47897) | 0.201 | 0.297 |
| RAB14_P61106_26_SCLLHQFTEK (UniProt P61106) | 0.0774 | 0.0849 |
| PXN_P49023_564_KFHPEHFVCAFCLK (UniProt P49023) | -0.216 | -0.136 |
| RAB29_O14966_127_CDLSPWAVSR (UniProt O14966) | 0.00041 | -0.0201 |
| QARS_P47897_445_WCIYPTYDYTHCLCDSIEHITHSLCTK (UniProt P47897) | 0.0915 | -0.0265 |
| PUS10_Q3MIT2_29_FCGVDFHAPYK (UniProt Q3MIT2) | -0.00925 | 0.0875 |
| RAB18_Q9NP72_155_TCDGVQCAFEELVEK (UniProt Q9NP72) | -0.0386 | -0.358 |
| RAB3GAP1_Q15042_678_MQSACLLSDMESFK (UniProt Q15042) | 0.12 | -0.101 |
| RAB3GAP2_Q9H2M9_395_RHGESICLSPCNTLAAVTDDFGR (UniProt Q9H2M9) | -0.0512 | 0.0695 |
| R3HCC1_Q9Y3T6_78_TVICHQDIR (UniProt Q9Y3T6+R3HCC1) | 0.0391 | 0.0856 |
| PUM2_Q8TB72_813_GHVLPLALQMYGCR (UniProt Q8TB72) | -0.125 | 0.0423 |
| QARS_P47897_556_VGVTVAQTTMEPHLLEACVR (UniProt P47897) | 0.0673 | 0.0826 |
| QTRT1_Q9BXR0_67_GITTEQLDALGCR (UniProt Q9BXR0) | -0.0588 | 0.169 |
| RABL6_Q3YEC7_140_NCNGVVMMFDITK (UniProt Q3YEC7) | 0.00811 | 0.0107 |

| Target | probe-labelled cysteine peptide fold change (10 µM) | probe-labelled cysteine peptide fold change (50 µM) |
| --- | --- | --- |
| QRSL1_Q9H0R6_203_NPAAHCGLVGFK (UniProt Q9H0R6) | 0.403 | 0.44 |
| PXN_P49023_290_CWAAGWPR (UniProt P49023) | 0.0794 | -0.093 |
| RAB18_Q9NP72_160_TCDGVQCAFEELVEK (UniProt Q9NP72) | 0.0849 | 0.0421 |
| RAB8A_P61006_123_CDVNDKR (UniProt P61006) | -0.067 | -0.109 |
| RAB33A_Q14088_197_ESQNVESIFMCLACR (UniProt Q14088) | 0.0997 | -0.163 |
| PUM2_Q8TB72_887_GQVFVLSTHPYGCR (UniProt Q8TB72) | 0.182 | -0.00723 |
| RAB43_Q86YS6_157_EVSLAEAQSLAEHYDILCAIETSAK (UniProt Q86YS6) | 0.187 | 0.0292 |
| RACK1_P63244_153_YTVQDESHSEWVSCVR (UniProt P63244) | 0.0663 | 0.204 |
| QPRT_Q15274_111_CSGIASAAAAAVEAAR (UniProt Q15274) | -0.00534 | 0.037 |
| RAB23_Q9ULC3_130_IDLLDDSCIK (UniProt Q9ULC3) | 0.234 | 0.173 |
| QRSL1_Q9H0R6_203_NPAAHCGLVGFKPSYGLVSR (UniProt Q9H0R6) | -0.00717 | -0.0802 |
| RAB24_Q969Q5_87_AAIVCYDLTDSSSFER (UniProt Q969Q5) | 0.165 | 0.158 |
| PXN_P49023_108_TSSVSNPQDSVGSPCSR (UniProt P49023) | -0.146 | -0.228 |
| QTRT2_Q9H974_324_KIETTGCNQEITSFEINLK (UniProt Q9H974) | -0.19 | -0.251 |
| QSOX2_Q6ZRP7_476_YVHTFFGCK (UniProt Q6ZRP7) | 0.00403 | 0.0233 |
| RAB39A_Q14964_23_SCLLHR (UniProt Q14964) | 0.178 | 0.086 |
| RABL3_Q5HYI8_27_SSLVHLLCQNQVLGNPSWTVGCSVDVR (UniProt Q5HYI8) | 0.116 | -0.0205 |
| RAB3D_O95716_137_CDLEDERVVPAEDGR (UniProt O95716) | 0.251 | 0.0747 |
| RAB3GAP1_Q15042_510+511_CCLLHQK (UniProt Q15042) | 0.0769 | 0.00668 |
| PXN_P49023_443_TWHPEHFFCAQCGAFFGPEGFHEK (UniProt P49023) | 0.143 | 0.113 |
| PUS3_Q9BZE2_420_CQGLESR (UniProt Q9BZE2) | -0.0795 | -0.127 |
